Measurements as given in PMC12224427.
Positions count from the first letter of the chain named. Names and notes keep the numbering of the source. No constants are given. Whether binding was seen depends on the method and setting. For part of these data: Binding seen in cells or lysates may run through a third protein. Some results given as binding are weak or reduced against the parent protein; the word gives no strength. For part of these data: Sequences can lack the tags named with a protein.

Legend:
[1] = molecular target: ALKBH5, endogenous (human (endogenous in HCT116, HCT8, LoVo)) (UniProt Q6P6C2); assay: co-IP; in vivo Co-IP of endogenous 6PGD and endogenous ALKBH5 in HCT116 and LoVo cells
[2] = molecular target: Flag-tagged ALKBH5 WT (1-394) (UniProt Q6P6C2); assay: co-IP; in vivo Flag pull-down of Flag-ALKBH5 (WT in HCT116 and LoVo; WT and truncation mutants in HCT116, extracts immunoprecipitated with Flag antibody), western blotting for 6PGD
[3] = molecular target: T1, Flag-tagged ALKBH5 truncation mutant T1 (114–274) (UniProt Q6P6C2); assay: as above
T1 sequence: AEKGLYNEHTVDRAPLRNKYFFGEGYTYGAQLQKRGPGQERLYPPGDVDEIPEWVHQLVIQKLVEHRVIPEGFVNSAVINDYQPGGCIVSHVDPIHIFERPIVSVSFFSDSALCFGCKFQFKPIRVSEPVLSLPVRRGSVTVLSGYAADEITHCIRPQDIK

[4] = molecular target: recombinant ALKBH5 (reALKBH5; aa:66–292) (UniProt Q6P6C2); assay: co-IP; in vitro Co-IP binding assay with recombinant 6PGD and recombinant ALKBH5; both purified
[5] = molecular target: T2, Flag-tagged 6-phosphogluconate dehydrogenase (6PGD) (UniProt P52209); assay: co-IP; 6PGD Flag pull-down from HCT116, HCT8 and LoVo cells, western blotting of m6A-related proteins
T2 sequence: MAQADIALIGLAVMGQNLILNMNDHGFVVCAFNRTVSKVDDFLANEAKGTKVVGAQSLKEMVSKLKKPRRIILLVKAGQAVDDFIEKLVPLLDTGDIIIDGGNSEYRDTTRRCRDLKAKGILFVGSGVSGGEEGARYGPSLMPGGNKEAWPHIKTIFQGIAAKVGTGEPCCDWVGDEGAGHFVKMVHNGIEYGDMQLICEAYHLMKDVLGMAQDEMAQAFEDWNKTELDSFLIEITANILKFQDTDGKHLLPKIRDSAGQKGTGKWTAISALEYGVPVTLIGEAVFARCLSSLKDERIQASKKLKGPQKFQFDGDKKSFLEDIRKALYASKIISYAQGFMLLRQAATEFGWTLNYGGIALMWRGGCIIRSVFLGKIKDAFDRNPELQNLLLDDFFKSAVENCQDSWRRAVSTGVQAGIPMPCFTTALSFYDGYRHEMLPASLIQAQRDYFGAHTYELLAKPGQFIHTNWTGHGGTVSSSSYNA

B1: 6-phosphogluconate dehydrogenase (6PGD), endogenous (enzyme, UniProt P52209 1-483)
chain: T2 sequence
For B1, the binding [1] was “binds”, the binding [2] was “binds” and the binding [3] was “binds”.

B2: recombinant 6PGD (re6PGD) (enzyme, UniProt P52209 1-483)
chain: T2 sequence
B2 was tested, and the binding [4] was “binds”.

B3: catalytically inactive 6PGD (6PGD K76R), for the in vitro binding assay (enzyme, UniProt P52209 1-483)
chain: T2 sequence with K76R
For B3, the binding [4] was “binds”.

B4: METTL14, endogenous (protein, UniProt Q9HCE5 1-456)
chain: MDSRLQEIRERQKLRRQLLAQQLGAESADSIGAVLNSKDEQREIAETRETCRASYDTSAPNAKRKYLDEGETDEDKMEEYKDELEMQQDEENLPYEEEIYKDSSTFLKGTQSLNPHNDYCQHFVDTGHRPQNFIRDVGLADRFEEYPKLRELIRLKDELIAKSNTPPMYLQADIEAFDIRELTPKFDVILLEPPLEEYYRETGITANEKCWTWDDIMKLEIDEIAAPRSFIFLWCGSGEGLDLGRVCLRKWGYRRCEDICWIKTNKNNPGKTKTLDPKAVFQRTKEHCLMGIKGTVKRSTDGDFIHANVDIDLIITEEPEIGNIEKPVEIFHIIEHFCLGRRRLHLFGRDSTIRPGWLTVGPTLTNSNYNAETYASYFSAPNSYLTGCTEEIERLRPKSPPPKSKSDRGGGAPRGGGRGGTSAGRGRERNRSNFRGERGGFRGGRGGAHRGGFPPR
For B4, the binding [5] was “no binding”.
